Reference: PubChem BioAssay AID1259295 (Sanger Institute, 2017)

- Test: 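Retest kinome hits one siRNA at a time for drug synthetic lethality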 (secondary deconvolution screen, four single siRNAs per gene)
- Cells: human COLO678 colorectal cancer cells
- Knock-down reagent: single siRNA against human genes
- Challenge: anchor drug BYL719 at 1 µM, cetuximab at 5 µg/ml or trametinib at 10 nM, or DMSO vehicle alone
- Detection: 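Averaged cell survival relative to control pool 2 with DMSO, plus synergy scores weighing knockdown combined with each of three drugs against either separately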
- Scale: synergy score with BYL719: higher = stronger combined killing with BYL719; synergy score with cetuximab: higher = stronger combined killing with cetuximab; synergy score with trametinib: higher = stronger combined killing with trametinib; viability, vehicle only: higher = more cells survive
- Rule for the call: 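Hit: synergy score over 0.10 with BYL719, cetuximab or trametinib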
In all, the deposit lists 160 reagents; shown is a random part of them. 40 of all reagents (25%) count as active. 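How the synergy score is calculated is not defined; single-siRNA calls need support from other siRNAs and cell lines.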 Entries without a mark were called inactive. Reagents against one gene are numbered here. No viability above 1 is reported: the scale is capped. Not given: the amount of reagent, the time to read-out.

no.	Target gene	reagent no.	synergy score with BYL719	synergy score with cetuximab	synergy score with trametinib	viability, vehicle only (fraction of control)
1	PLK1	1	0.172 (active)	0.173	0.114	0.729
2	PLK1	2	0.078	0.0593	0.0661	0.887
3	PLK1	3	-0.101	-0.114	0.00469	0.56
4	PLK1	4	-0.228	-0.069	-0.0598	0.746
5	COASY	1	0.0795	0.0919	0.0168	1
6	COASY	2	0.153 (active)	0.107	0.172	1
7	COASY	3	0.0582	0.0402	-0.0466	0.865
8	COASY	4	0.086	0.0768	0.0708	1
9	HSPB8	1	-0.144	-0.0753	0.056	0.854
10	HSPB8	2	-0.112	0.0988	0.0151	0.973
11	HSPB8	3	-0.0741	-0.0292	-0.0157	1
12	HSPB8	4	-0.0135	0.0963	0.0557	1
13	IRAK3	1	-0.231	-0.139	-0.173	0.679
14	IRAK3	2	-0.0223	0.0685	-0.0648	0.846
15	IRAK3	3	-0.238	-0.0189	-0.0833	0.835
16	IRAK3	4	-0.23	-0.141	-0.0447	0.844
17	IKBKB	1	-0.0222	0.0595	-0.0589	1
18	IKBKB	2	-0.0222 (active)	0.00326	0.129	1
19	IKBKB	3	-0.0179 (active)	0.0833	0.114	1
20	IKBKB	4	-0.0877	-0.119	0.073	1
21	NR2F2	1	-0.258	-0.0358	0.0268	0.813
22	NR2F2	2	-0.0423	-0.123	0.0212	0.803
23	NR2F2	3	-0.0753	-0.0716	0.0357	0.932
24	NR2F2	4	-0.258	-0.174	-0.00567	0.813
25	PIM1	1	-0.00993	-0.0701	0.0721	0.828
26	PIM1	2	0.125 (active)	-0.00756	0.086	1
27	PIM1	3	0.0925	-0.00973	-0.0589	1
28	PIM1	4	0.0561 (active)	-0.0744	0.193	0.865
29	CHD4	1	-0.124	-0.048	-0.000795	0.697
30	CHD4	2	-0.0652	0.074	0.00388	0.818
31	CHD4	3	0.0125	0.00286	0.0736	0.943
32	CHD4	4	-0.0274	0.0681	0.0326	0.831
33	MPP3	1	-0.0877	-0.0725	0.047	1
34	MPP3	2	-0.0877	-0.0811	0.0319	1
35	MPP3	3	0.0479 (active)	0.0919	0.197	0.958
36	MPP3	4	-0.0689	-0.0422	0.0152	0.958

Continued (2 carried over from the part before).
no.	Target gene	reagent no.	synergy score with BYL719	synergy score with cetuximab	synergy score with trametinib	viability, vehicle only (fraction of control)
35	MPP3	3	0.0479 (active)	0.0919	0.197	0.958
36	MPP3	4	-0.0689	-0.0422	0.0152	0.958
37	SYNCRIP	1	-0.0413 (active)	0.0359	0.163	0.865
38	SYNCRIP	2	0.0233	0.0941	0.00594	1
39	SYNCRIP	3	0.0671	0.042	0.0423	0.887
40	SYNCRIP	4	-0.0481	0.0662	0.0506	0.993
41	PINK1	1	-0.221	-0.127	0.0365	0.854
42	PINK1	2	-0.111	-0.0792	-0.0612	0.796
43	PINK1	3	-0.0843	0.0522	0.0519	0.764
44	PINK1	4	-0.16	-0.0565	0.0532	0.841
45	CRIM1	1	0.00378 (active)	0.0379	0.155	1
46	CRIM1	2	-0.0403	-0.0754	0.0131	0.928
47	CRIM1	3	0.0687 (active)	-0.066	0.107	1
48	CRIM1	4	0.19 (active)	0.053	0.138	1
49	BMPR2	1	-0.0877	0.0357	-0.0654	1
50	BMPR2	2	-0.0867	0.0115	-0.0669	0.815
51	BMPR2	3	-0.0214	0.00761	-0.035	0.885
52	BMPR2	4	-0.0877	-0.119	-0.135	1
53	ACVR1	1	-0.0903	-0.0793	0.0407	0.997
54	ACVR1	2	-0.209	-0.0847	0.0353	0.807
55	ACVR1	3	-0.118	-0.0735	0.0451	0.967
56	ACVR1	4	-0.242	-0.0141	-0.0518	0.831
57	MARK3	1	-0.0484	-0.0069	-0.069	0.898
58	MARK3	2	-0.0878	-0.0745	-0.0313	0.902
59	MARK3	3	-0.28	-0.164	-0.169	0.779
60	MARK3	4	-0.29	-0.233	-0.104	0.779
